Test results reported in PMC8950122.
These are yes or no findings as the source states them, for the method shown. Binding seen in cells or lysates may run through a third protein. For some of these results: Where a sequence is shown, tags or fusion partners need not be part of it.

Amino acid sequences for entries named in this document (tags omitted). Chains listed by the source or under a name are the forms on record and can include a tag or linker. Residues count along the entry.
UniProt Q14494: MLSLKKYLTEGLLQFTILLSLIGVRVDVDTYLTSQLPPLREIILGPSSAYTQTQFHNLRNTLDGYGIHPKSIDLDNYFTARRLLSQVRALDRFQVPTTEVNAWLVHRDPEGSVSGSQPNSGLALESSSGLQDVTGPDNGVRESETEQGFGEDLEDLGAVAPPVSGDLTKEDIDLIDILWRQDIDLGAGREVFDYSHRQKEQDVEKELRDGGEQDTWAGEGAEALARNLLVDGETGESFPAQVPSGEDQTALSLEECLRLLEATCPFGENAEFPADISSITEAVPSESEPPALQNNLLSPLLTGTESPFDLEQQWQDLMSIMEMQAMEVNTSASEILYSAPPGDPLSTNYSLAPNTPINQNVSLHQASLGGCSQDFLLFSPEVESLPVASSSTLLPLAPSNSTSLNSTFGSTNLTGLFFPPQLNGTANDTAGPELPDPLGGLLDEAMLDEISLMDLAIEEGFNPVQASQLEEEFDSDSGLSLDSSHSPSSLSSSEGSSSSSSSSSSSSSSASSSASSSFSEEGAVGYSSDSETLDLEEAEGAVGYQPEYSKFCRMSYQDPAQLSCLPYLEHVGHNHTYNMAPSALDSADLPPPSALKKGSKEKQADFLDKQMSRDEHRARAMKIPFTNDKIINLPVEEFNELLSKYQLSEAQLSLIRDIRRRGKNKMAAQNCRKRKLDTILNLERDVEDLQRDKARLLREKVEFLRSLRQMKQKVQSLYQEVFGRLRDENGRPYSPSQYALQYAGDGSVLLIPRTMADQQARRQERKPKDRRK
UniProt P62955: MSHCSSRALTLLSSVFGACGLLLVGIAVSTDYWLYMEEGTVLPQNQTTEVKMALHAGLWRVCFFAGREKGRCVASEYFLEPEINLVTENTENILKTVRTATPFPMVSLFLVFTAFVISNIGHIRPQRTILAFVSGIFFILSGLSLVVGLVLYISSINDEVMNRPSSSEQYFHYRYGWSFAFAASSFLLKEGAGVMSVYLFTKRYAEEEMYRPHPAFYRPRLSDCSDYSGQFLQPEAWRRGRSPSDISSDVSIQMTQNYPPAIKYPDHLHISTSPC
UniProt P02724, residues 20-150: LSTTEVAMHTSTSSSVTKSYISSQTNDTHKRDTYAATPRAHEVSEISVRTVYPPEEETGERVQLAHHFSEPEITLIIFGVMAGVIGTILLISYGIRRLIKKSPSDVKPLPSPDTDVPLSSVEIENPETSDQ
PB2-N (residues 1 to 247) fused to Luc1 or Luc2 (P03427, residues 1-247): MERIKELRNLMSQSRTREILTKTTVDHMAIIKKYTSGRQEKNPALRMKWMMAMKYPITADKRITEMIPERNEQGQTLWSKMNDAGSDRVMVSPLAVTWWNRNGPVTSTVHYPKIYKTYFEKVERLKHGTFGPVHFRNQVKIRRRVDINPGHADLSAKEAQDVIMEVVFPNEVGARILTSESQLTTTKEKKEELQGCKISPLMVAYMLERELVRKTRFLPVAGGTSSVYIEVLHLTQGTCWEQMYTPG
PB2(36–247) fused to Luc2 (P03427, residues 36-247): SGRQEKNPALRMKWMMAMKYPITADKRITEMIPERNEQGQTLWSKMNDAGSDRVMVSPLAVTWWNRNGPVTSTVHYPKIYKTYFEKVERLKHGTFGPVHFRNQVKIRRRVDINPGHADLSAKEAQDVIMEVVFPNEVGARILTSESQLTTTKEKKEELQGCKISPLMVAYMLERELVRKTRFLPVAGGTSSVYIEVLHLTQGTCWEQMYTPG

Columns and labels:
Assay in all cases: split reporter
[1] = biological target: T1, Contactin-2, Luc1-tagged (UniProt Q02246)
T1 sequence: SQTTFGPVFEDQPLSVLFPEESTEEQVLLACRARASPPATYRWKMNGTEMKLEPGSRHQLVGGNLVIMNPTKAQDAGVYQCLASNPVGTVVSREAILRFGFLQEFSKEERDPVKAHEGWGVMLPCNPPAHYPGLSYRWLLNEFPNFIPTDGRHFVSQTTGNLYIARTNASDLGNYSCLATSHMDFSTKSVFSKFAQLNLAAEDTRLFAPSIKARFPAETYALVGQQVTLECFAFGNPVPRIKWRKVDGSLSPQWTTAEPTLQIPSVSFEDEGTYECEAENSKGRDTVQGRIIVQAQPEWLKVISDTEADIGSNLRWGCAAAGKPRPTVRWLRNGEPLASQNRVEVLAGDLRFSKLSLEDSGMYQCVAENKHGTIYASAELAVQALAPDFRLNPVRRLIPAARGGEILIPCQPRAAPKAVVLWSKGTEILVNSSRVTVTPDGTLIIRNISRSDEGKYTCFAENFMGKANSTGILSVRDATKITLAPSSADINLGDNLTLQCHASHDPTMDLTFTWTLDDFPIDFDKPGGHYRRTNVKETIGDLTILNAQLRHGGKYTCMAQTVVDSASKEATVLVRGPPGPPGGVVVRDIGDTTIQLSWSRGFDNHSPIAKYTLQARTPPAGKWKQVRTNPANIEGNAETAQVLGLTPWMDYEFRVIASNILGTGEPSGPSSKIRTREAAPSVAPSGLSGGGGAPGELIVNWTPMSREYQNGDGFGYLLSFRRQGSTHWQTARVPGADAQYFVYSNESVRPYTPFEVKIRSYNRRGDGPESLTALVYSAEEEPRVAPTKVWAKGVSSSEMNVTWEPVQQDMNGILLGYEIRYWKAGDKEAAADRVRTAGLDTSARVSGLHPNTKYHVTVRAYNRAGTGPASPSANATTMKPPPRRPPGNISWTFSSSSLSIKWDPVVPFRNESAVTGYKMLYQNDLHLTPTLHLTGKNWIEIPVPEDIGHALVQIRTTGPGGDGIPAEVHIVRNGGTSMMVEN

[2] = biological target: T2, glutathione S-transferase theta-1, Luc1-tagged (UniProt P30711)
T2 sequence: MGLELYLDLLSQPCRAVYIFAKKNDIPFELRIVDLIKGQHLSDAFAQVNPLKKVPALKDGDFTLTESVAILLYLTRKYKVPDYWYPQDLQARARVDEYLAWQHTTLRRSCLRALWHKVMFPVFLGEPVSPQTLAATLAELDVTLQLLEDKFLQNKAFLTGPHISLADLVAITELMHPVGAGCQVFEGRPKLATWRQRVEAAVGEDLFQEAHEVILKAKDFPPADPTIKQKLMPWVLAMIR

[3] = biological target: T3, MICOS complex subunit MIC27, Luc1-tagged (UniProt Q6UXV4)
T3 sequence: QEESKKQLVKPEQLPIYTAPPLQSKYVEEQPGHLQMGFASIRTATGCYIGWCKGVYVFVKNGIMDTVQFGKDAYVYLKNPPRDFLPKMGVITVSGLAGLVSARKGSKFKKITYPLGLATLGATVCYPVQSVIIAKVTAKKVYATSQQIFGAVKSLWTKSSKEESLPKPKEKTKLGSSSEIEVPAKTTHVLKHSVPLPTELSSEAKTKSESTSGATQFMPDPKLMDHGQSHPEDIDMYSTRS

[4] = biological target: endoplasmic reticulum membrane sensor NFE2L1, Luc1-tagged (UniProt Q14494)
[5] = biological target: T4, dopamine beta-hydroxylase, Luc1-tagged (UniProt P09172)
T4 sequence: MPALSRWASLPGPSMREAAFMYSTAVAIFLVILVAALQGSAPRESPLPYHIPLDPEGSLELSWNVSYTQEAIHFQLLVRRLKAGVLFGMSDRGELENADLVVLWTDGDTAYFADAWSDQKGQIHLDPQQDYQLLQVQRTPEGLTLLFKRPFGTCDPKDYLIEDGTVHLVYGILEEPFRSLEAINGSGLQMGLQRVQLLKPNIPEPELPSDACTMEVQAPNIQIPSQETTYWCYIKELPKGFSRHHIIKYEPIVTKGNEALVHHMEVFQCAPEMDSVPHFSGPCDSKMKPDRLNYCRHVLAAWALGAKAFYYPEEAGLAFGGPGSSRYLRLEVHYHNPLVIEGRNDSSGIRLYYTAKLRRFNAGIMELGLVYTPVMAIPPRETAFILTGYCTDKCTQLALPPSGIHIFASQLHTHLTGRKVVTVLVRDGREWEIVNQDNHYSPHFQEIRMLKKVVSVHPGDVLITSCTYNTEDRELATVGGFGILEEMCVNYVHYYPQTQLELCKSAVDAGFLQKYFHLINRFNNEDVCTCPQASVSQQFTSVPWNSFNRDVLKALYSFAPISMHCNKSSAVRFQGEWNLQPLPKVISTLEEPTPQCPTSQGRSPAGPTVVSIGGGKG

[6] = biological target: T5, Neurexophilin-1, Luc1-tagged (UniProt P58417)
T5 sequence: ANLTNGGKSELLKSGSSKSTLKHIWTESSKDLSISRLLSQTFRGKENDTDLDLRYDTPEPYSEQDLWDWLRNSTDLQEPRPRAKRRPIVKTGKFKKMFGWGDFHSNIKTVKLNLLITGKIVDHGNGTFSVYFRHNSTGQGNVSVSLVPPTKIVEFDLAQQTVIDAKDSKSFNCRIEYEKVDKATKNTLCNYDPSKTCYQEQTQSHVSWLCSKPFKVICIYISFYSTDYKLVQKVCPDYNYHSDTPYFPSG

[7] = biological target: Voltage-dependent calcium channel gamma-7 subunit, Luc1-tagged (UniProt P62955)
[8] = biological target: glycophorin-A, Luc1-tagged (UniProt P02724)

Measured: binding

PB2(36–247) fused to Luc2 (from UniProt P03427 36-247) (domain or fragment)
no binding: all assays above

PB2-N (residues 1 to 247) fused to Luc1 or Luc2 (from UniProt P03427 1-247) (domain or fragment)
no binding: all assays above
